Measured values: article PMC5215799
These are yes or no findings as the source states them, for the method shown. Binding seen in cells or lysates may run through a third protein. Here binding means that the protein was enriched with, or labelled near, the bait; the list need not be complete.

Chains of the proteins cited; added tags and fusions are not shown. Lines headed by an entry give the natural chain unless they say otherwise; changes in a name come on top. Residues count along the entry.
UniProt P18242: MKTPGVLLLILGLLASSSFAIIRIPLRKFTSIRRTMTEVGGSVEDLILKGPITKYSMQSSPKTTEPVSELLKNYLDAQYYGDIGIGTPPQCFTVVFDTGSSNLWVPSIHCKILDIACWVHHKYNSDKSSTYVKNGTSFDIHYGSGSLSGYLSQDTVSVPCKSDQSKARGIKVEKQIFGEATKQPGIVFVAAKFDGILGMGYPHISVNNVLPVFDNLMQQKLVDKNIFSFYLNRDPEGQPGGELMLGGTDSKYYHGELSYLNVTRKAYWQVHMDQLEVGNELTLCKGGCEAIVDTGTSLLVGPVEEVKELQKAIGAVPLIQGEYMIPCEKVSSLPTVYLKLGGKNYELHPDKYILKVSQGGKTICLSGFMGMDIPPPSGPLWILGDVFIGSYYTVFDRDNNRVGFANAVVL
UniProt P68372: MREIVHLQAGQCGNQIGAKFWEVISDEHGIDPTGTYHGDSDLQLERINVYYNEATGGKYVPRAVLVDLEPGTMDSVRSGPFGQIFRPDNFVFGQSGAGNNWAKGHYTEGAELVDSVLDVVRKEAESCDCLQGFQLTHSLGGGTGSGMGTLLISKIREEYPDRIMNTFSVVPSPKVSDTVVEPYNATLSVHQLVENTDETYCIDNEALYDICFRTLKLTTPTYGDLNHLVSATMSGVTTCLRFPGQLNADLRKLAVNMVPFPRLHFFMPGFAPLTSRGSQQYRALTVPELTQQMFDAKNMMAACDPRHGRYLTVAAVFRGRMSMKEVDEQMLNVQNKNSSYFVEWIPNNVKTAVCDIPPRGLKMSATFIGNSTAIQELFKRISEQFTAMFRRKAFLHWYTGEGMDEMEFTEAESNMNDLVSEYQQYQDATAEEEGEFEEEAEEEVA
UniProt P19157: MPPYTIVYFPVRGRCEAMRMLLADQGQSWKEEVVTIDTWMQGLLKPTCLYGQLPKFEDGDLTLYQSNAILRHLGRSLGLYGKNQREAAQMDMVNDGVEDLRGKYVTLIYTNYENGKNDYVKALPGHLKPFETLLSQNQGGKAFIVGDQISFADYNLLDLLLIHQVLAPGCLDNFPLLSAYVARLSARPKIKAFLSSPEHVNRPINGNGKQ
UniProt P68368: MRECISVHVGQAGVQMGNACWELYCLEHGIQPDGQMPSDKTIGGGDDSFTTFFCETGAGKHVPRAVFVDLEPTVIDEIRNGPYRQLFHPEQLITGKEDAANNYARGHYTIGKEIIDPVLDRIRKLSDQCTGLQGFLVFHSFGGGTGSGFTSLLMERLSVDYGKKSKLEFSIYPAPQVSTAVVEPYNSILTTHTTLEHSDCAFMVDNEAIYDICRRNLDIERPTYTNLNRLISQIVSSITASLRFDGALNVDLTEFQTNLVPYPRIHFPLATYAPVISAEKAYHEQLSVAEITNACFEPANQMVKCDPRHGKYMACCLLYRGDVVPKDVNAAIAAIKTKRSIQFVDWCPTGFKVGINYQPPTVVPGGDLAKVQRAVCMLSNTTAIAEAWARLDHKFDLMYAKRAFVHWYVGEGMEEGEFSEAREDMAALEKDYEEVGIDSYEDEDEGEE
UniProt P23979, residues 24-489: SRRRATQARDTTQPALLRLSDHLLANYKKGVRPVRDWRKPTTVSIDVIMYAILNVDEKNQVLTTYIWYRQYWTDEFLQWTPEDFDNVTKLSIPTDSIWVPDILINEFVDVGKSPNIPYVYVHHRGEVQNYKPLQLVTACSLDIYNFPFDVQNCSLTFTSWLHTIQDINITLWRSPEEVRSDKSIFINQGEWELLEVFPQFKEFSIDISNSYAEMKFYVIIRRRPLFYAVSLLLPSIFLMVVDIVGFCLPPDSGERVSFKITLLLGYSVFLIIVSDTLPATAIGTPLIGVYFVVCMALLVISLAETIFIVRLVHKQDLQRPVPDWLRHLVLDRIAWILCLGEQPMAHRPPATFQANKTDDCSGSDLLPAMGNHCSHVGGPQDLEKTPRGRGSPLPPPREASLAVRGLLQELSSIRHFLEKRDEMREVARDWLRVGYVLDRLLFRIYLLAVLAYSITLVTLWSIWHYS
UniProt P20029, residues 20-655: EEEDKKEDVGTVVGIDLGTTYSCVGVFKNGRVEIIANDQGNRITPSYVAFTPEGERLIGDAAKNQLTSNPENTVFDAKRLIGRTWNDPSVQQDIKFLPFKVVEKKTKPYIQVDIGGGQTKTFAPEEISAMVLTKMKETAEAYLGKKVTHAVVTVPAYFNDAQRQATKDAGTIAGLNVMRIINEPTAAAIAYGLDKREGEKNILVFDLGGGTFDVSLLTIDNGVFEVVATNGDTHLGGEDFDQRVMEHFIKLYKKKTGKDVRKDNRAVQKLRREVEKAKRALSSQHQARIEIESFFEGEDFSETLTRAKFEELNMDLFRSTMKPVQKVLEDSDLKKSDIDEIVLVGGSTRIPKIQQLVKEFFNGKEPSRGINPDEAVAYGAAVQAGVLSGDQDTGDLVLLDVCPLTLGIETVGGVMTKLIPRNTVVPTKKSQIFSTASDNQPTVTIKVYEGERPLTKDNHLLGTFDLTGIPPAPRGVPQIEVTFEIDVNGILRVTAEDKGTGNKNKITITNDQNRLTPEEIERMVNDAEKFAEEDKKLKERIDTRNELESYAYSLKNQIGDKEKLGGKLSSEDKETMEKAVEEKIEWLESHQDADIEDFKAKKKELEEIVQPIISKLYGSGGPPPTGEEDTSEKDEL
UniProt P54923: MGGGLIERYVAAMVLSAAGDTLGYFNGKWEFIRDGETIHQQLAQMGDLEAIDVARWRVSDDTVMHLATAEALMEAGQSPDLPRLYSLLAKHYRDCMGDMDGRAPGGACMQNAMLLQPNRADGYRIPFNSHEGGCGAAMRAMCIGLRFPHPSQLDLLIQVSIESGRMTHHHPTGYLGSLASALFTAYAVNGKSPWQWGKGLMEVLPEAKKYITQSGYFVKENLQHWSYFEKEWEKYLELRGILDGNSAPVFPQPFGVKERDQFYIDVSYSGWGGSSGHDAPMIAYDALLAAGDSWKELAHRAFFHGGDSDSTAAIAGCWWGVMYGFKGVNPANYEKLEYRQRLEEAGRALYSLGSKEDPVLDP
UniProt Q61937: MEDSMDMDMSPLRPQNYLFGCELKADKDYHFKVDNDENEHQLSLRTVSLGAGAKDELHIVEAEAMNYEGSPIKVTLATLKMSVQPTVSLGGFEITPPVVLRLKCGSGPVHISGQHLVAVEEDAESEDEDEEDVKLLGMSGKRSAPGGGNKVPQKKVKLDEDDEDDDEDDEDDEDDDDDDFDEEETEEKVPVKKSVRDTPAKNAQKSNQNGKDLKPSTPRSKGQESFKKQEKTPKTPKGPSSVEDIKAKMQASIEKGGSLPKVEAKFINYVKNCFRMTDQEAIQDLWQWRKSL
UniProt P63038, residues 27-573: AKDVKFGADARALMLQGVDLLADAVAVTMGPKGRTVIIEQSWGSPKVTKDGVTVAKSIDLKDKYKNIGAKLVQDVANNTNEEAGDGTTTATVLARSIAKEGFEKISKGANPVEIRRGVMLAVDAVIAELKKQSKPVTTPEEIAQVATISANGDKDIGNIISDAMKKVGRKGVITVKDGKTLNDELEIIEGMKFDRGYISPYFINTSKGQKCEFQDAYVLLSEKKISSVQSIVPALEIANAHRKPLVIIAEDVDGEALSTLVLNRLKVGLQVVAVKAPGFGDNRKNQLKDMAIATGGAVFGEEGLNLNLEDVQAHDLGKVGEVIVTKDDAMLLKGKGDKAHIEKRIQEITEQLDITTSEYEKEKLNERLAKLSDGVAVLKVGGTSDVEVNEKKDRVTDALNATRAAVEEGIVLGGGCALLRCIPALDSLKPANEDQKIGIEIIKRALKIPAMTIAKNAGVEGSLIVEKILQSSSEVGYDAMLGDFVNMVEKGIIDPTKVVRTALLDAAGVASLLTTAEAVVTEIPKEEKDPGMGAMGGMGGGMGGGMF
UniProt O88569: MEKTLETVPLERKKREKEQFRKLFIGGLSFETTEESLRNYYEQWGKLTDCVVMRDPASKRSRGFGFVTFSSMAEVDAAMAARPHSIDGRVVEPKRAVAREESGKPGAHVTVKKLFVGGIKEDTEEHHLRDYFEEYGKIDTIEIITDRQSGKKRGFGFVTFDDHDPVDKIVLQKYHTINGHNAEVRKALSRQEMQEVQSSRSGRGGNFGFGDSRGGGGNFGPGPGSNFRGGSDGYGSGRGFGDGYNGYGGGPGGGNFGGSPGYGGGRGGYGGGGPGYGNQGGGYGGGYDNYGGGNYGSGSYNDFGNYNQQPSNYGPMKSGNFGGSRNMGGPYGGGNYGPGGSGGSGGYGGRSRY

B1: CP (protein, UniProt Q61147 20-1061)
chain: RDKHYFIGITEAVWDYASGTEEKKLISVDTEQSNFYLQNGPDRIGRKYKKALYFEYTDGTFSKTIDKPAWLGFLGPVIKAEVEDKVYVHLKNLASRIYTFHAHGVTYTKEYEGAVYPDNTTDFQRADDKVLPGQQYVYVLHANEPSPGEGDSNCVTRIYHSHVDAPKDIASGLIGPLILCKKGSLYKEKEKNIDQEFVLMFSVVDENLSWYLEDNIKTFCSEPEKVDKDNEDFQESNRMYSINGYTFGSLPGLSMCAADRVKWYLFGMGNEVDVHSAFFHGQALTSRNYQTDIINLFPATLIDAYMVAQNPGVWMLSCQNLNHLKAGLQAFFQVRDCNKPSPEDNIQDRHVRHYYIAAEEVIWNYAPSGTDIFTGENLTALESDSRVFFEQGATRIGGSYKKMAYREYTDGSFTNRKQRGPDEEHLGILGPVIWAEVGDTIKVTFHNKGQHPLSIQPMGVSFTAENEGTYYGPPGRSSQQAASHVAPKETFTYEWTVPKEMGPTYADPVCLSKMYYSGVDPTKDIFTGLIGPMKICKKGSLLADGRQKDVDKEFYLFPTVFDENESLLLDDNIRMFTTAPDQVDKEDEDFQESNKMHSMNGFMYGNQPGLNMCLGESIVWYLFSAGNEADVHGIYFSGNTYLSKGERRDTANLFPHKSLTLLMNPDTKGTFDVECLTTDHYTGGMKQKYTVNQCQRQFEDFTVYLGERTYYVAAVEVEWDYSPSRAWEKELHHLQEQNVSNVFLDKEEFFIGSKYKKVVYRQFTDSSFREQVKRRAEDEHLGILGPPIHANVGDKVKVVFKNMATRPYSIHAHGVKTESSTVVPTLPGEVRTYTWQIPERSGAGREDSACIPWAYYSTVDRVKDLYSGLIGPLIVCRKSYVKVFSPKKKMEFFLLFLVFDENESWYLDDNIKTYSEHPEKVNKDNEEFLESNKMHAINGKMFGNLQGLTMHVKDEVNWYVMGMGNEIDLHTVHFHGHSFQYKHRGVYSSDVFDLFPGTYQTLEMFPQTPGTWLLHCHVTDHVHAGMATTYTVLPVEQETKSG
B2: CERLD2 (protein, UniProt Q9CYA0 23-350)
chain: SRKPTMCQRCRTLVDKFNQGMANTARKNFGGGNTAWEEKTLSKYEFSEIRLLEIMEGLCDSSDFECNQLLEQQEEQLEAWWQTLKKEHPNLFEWFCVHTLKACCLPGTYGPDCQECQGGSERPCSGNGYCSGDGSRQGDGSCQCHTGYKGPLCIDCTDGFFSLQRNETHSICSACDESCKTCSGPSNKDCIQCEVGWARVEDACVDVDECAAETSPCSDGQYCENVNGSYTCEDCDSTCVGCTGKGPANCKECIAGYTKESGQCTDIDECSLEEKACKRKNENCYNVPGSFVCVCPEGFEETEDACVQTAEGKVTEENPTQPPSREDL
B3: Eef1d (protein, UniProt P57776 1-281)
chain: MATNFLAHEKIWFDKFKYDDAERRFYEQMNGPVTSGSRQENGASVILRDIARARENIQKSLAGSSGPGASSGPGGDHSELIVRITSLEVENQNLRGVVQDLQQAISKLEARLSSLEKSSPTPRATAPQTQHVSPMRQVEPPTKKGATPAEDDEDKDIDLFGSDEEEEDKEAARLREERLRQYAEKKAKKPTLVAKSSILLDVKPWDDETDMAQLETCVRSIQLDGLVWGASKLVPVGYGIRKLQIQCVVEDDKVGTDLLEEEITKFEEHVQSVDIAAFDKI

molecular target: HA-tagged gp96 (UniProt P08113); experiment: affinity purification with mass spectrometry; RIPA lysate (500 μg) of preB leukemia cells stably expressing HA-tagged gp96, precleared with normal IgG on protein G beads, then anti-HA (clone HA-7) on protein G beads 3 hours at 4°C; eluate on SDS-PAGE, LC-MS/MS

How did the binding turn out when B1 was run?
Its binding is “binds”.

B2 was tested. Which binding did it give?
Its binding is “binds”.

For B3, which binding is on record?
The binding was “binds”.

molecular target: HA-tagged gp96 (UniProt P08113); experiment: as above; remark: another data set of the same source

For CTSD (from UniProt P18242), which binding is on record?
Its binding is “binds”.

Which binding does the source give for TUBB2C (from UniProt P68372 1-445) here?
Its binding is “binds”.

Gstp1 (from UniProt P19157 1-210) was tested. Which binding did it give?
The binding was “binds”.

How did the binding turn out when “Tubulin α4a (TUBA4A) (from UniProt P68368 1-448)” was run?
The binding was “binds”.

Which binding does the source give for HTR3A (from UniProt P23979 24-489) here?
Its binding is “binds”.

How did the binding turn out when Hspa5 (from UniProt P20029 20-655) was run?
Its binding is “binds”.

Adprh (from UniProt P54923 1-362) was tested. Which binding did it give?
Its binding is “binds”.

With Npm1 (from UniProt Q61937 1-292) as the molecule, how does the binding read?
The binding was “binds”.

Which binding does the source give for Hnrnpk (from UniProt P61979 1-463) here?
Its binding is “binds”.

For Hspd1 (from UniProt P63038 27-573), which binding is on record?
Its binding is “binds”.

With Hnrnpa2b1 (from UniProt O88569 1-353) as the molecule, how does the binding read?
The binding was “binds”.
